“And” between values parts separate entries of the source, which are not always exact repeats. Identical values can stand only once. Further values from the same series stand in other lists.

The subject of the data set is Meloidogyne incognita. As to the kind of experiment: Indoor toxicity test against Meloidogyne incognita second-instar larvae (J2). How it is done:
Materials: the tested nematodes were collected from three different areas, namely cucumber crops in Dawenkou Town, Tai'an City, Shandong Province, and were all identified as southern root-knot nematodes (Meloidogyne incognita). The diseased roots were washed, cut into small sections of 0.5 cm to 1 cm, rinsed in 1% NaClO solution for about 30 s to 60 s, and rinsed with 200-mesh and 500-mesh sieves to collect nematode eggs for later use. The collected eggs were incubated at 25° C. using the Bayman funnel method and the second-instar larvae were collected 1 time per 24 h to ensure that the second-instar larvae selected each time were fresh and of consistent vitality.
The agent was 98% sulfoxamyl technical, and the comparison agents were 96% oxamyl technical and 87% fosthiazate technical.
The preparation for the agent was in accordance with the provisions for preparation of the liquid medicine in the Agricultural Industry Standard of the People's Republic of China NYT 1833.1-2009 “Guideline for laboratory bioassay of pesticides”, as shown in Table 6.
Methods: according to the experimental plan, the test agent was diluted to different mass concentrations, and 0.5 mL of the agent solution and 0.5 mL of the nematode solution (containing about 100 nematodes) were added into a 24-well cell culture plate. The treatment with each concentration of the agent was repeated 4 times, and auxiliary agent control and blank control were also conducted. […]

In the case of `CNC(=O)O/N=C(\SC)C(=O)N(C)C` [Oxamyl, N,N-dimethyl-2-[[[(methylamino)carbonyl]oxy]imino]-2-(methylthio)acetamide], the Corrected mortality is 93.50% (200 mg/L, 48 h); 90.88% and 96.65% and 94.85% and 94.61% (400 mg/L, 24 h); 97.26% and 98.32% and 99.14% and 98.19% (400 mg/L, 48 h); 99.08% and 99.16% and 99.56% (400 mg/L, 72 h). Also, the Mortality is 93.49% (200 mg/L, 48 h); 96.14% (200 mg/L, 72 h); 90.99% and 96.69% and 94.92% and 94.70% (400 mg/L, 24 h); 98.35% and 99.15% and 98.23% (400 mg/L, 48 h); 99.10% and 99.17% and 99.56% (400 mg/L, 72 h).
Consider `CNC(=O)O/N=C(/C(=O)N(C)C)S(C)(=O)=O` [Sulfoxamyl, N,N-dimethyl-2-[[[(methylamino)carbonyl]oxy]imino]-2-(methylsulfonyl)acetamide], for which the Corrected mortality by setting is: (50 mg/L, 24 h) 82.57% and 90.07% and 85.21%; (50 mg/L, 48 h) 88.62% and 90.85% and 96.02% and 91.92%; (50 mg/L, 72 h) 98.33% and 99.00% and 96.99%; (100 mg/L, 24 h) 99.16% and 99.06% and 98.63%; (100 mg/L, 48 h) 100.00% and 99.77%. The Mortality was 82.79% and 90.20% and 85.27% (50 mg/L, 24 h); 88.79% and 90.98% and 96.08% and 91.96% (50 mg/L, 48 h); 98.36% and 99.02% and 97.10% (50 mg/L, 72 h); 100.00% and 99.17% and 98.64% (100 mg/L, 24 h); 99.77% (100 mg/L, 48 h).

Values taken from patent US20250221413A1, “Use and Preparation Method of Sulfoxamyl, and Oxidation System” (priority 2023, published 2025).
